# PubChem BioAssay AID1224826, NIAID, 2016
# Aim: 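Regulators of Tlr4 signalling leading to Tnf-alpha expression in macrophages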 (primary screen)
# System: RAW264.7 G9 macrophages from mouse bearing reporters for p65 (GFP) and the Tnf promoter (mCherry)
# Knock-down reagent: siRNA pool against mouse genes, 100 nM
# Duration: 16 h of LPS stimulation, after 2 days of siRNA transfection
# Challenge: bacterial lipopolysaccharide (Salmonella minnesota R595), 10 ng/ml
# Measured: 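Nuclear mCherry signal of the Tnf promoter reporter measured by imaging after background removal, scaled to each plate median and turned into robust z-scores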
# Direction: Tnf reporter robust z-score: higher = stronger Tnf promoter reporter signal after LPS
# Active means: 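a well counts as active at a score of -1.3 or below (Tlr4 knock-down control median) or above 3 (raised signal); controls and wells holding fewer than 50 cells are excluded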
# Calls: active = Tnf reporter clearly lowered or raised; inactive = no clear change in Tnf reporter
# The deposit covers about 17,000 reagents; this is a part drawn at random. Of all reagents, about 1,110 (6.6%) are marked active. 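Active means lowered or raised reporter signal; replicate intensities are raw and not normalised per plate.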 A number with no mark means an inactive call. Some reagents were tested in more than one well and are listed for each. Not all columns of the deposit are shown. Reagent sequences are not shown.
gene,Tnf reporter robust z-score,fewer than 50 cells in well
Chmp4c (charged multivesicular body protein 4C),,fewer than 50 cells per well; well left out of calls
Herc3 (hect domain and RLD 3),0.22,enough cells in well
Tent4b (terminal nucleotidyltransferase 4B),-0.85,enough cells in well
Oas1f (2'-5' oligoadenylate synthetase 1F),-0.31,enough cells in well
Gsdmc2 (gasdermin C2),-0.32,enough cells in well
"Acvr1b (activin A receptor, type 1B)",-0.47,enough cells in well
Vmn1r211 (vomeronasal 1 receptor 211),0.93,enough cells in well
Pdlim7 (PDZ and LIM domain 7),-0.56,enough cells in well
Vax2 (ventral anterior homeobox 2),-0.73,enough cells in well
Mrps25 (mitochondrial ribosomal protein S25),-0.56,enough cells in well
"Ptpn14 (protein tyrosine phosphatase, non-receptor type 14)",-1.13,enough cells in well
"Card14 (caspase recruitment domain family, member 14)",0.94,enough cells in well
Ctbs (chitobiase),0.29,enough cells in well
Nupr2 (nuclear protein transcriptional regulator 2),-0.95,enough cells in well
Mapk11 (mitogen-activated protein kinase 11),-0.21,enough cells in well
Vps72 (vacuolar protein sorting 72),0.22,enough cells in well
"Pym1 (PYM homolog 1, exon junction complex associated factor)",1,enough cells in well
"Itih1 (inter-alpha trypsin inhibitor, heavy chain 1)",0.2,enough cells in well
"Cacna1d (calcium channel, voltage-dependent, L type, alpha 1D subunit)",-1.43 (active),enough cells in well
Fgf15 (fibroblast growth factor 15),0.48,enough cells in well
Cfap74 (cilia and flagella associated protein 74),,fewer than 50 cells per well; well left out of calls
Efna1 (ephrin A1),0.18,enough cells in well
Eif4e (eukaryotic translation initiation factor 4E),-0.77,enough cells in well
Pcyox1 (prenylcysteine oxidase 1),2.24,enough cells in well
"Myh11 (myosin, heavy polypeptide 11, smooth muscle)",-0.56,enough cells in well
"Pigc (phosphatidylinositol glycan anchor biosynthesis, class C)",0.42,enough cells in well
Mtmr11 (myotubularin related protein 11),1.16,enough cells in well
"Cyp3a41a (cytochrome P450, family 3, subfamily a, polypeptide 41A)",0.25,enough cells in well
Or5af2 (olfactory receptor family 5 subfamily AF member 2),-0.27,enough cells in well
Tmem33 (transmembrane protein 33),,fewer than 50 cells per well; well left out of calls
"H2-D4 (histocompatibility 2, D region locus 4)",-1.27,enough cells in well
Rnd3 (Rho family GTPase 3),0.8,enough cells in well
Or2aj5 (olfactory receptor family 2 subfamily AJ member 5),0.91,enough cells in well
Shq1 (SHQ1 homolog (S. cerevisiae)),2.15,enough cells in well
Tacstd2 (tumor-associated calcium signal transducer 2),-1.48 (active),enough cells in well
"Nt5c2 (5'-nucleotidase, cytosolic II)",0.47,enough cells in well
Nap1l2 (nucleosome assembly protein 1-like 2),0.59,enough cells in well
"Aldh5a1 (aldhehyde dehydrogenase family 5, subfamily A1)",0.33,enough cells in well
Wdr24 (WD repeat domain 24),-0.03,enough cells in well
"Lysmd1 (LysM, putative peptidoglycan-binding, domain containing 1)",-0.6,enough cells in well
Klc3 (kinesin light chain 3),-0.28,enough cells in well
Mims2 (mitochondrial inner membrane scaffold 2),,fewer than 50 cells per well; well left out of calls
Dph1 (diphthamide biosynthesis 1),0.65,enough cells in well
"Ppp1r14a (protein phosphatase 1, regulatory inhibitor subunit 14A)",-0.71,enough cells in well
Zfp638 (zinc finger protein 638),0.13,enough cells in well
Zfp938 (zinc finger protein 938),-0.26,enough cells in well
Lrrtm3 (leucine rich repeat transmembrane neuronal 3),0.34,enough cells in well
Ehmt2 (euchromatic histone lysine N-methyltransferase 2),-0.42,enough cells in well
"Vapa (vesicle-associated membrane protein, associated protein A)",0.12,enough cells in well
Rcan3 (regulator of calcineurin 3),-0.85,enough cells in well
Slc6a17,-0.51,enough cells in well
Loxl1 (lysyl oxidase-like 1),0.78,enough cells in well
Cplx1 (complexin 1),0.51,enough cells in well
Hhatl (hedgehog acyltransferase-like),1.44,enough cells in well
"D7Ertd413e (DNA segment, Chr 7, ERATO Doi 413, expressed)",,fewer than 50 cells per well; well left out of calls
Vmn1r210 (vomeronasal 1 receptor 210),-0.06,enough cells in well
"Sec16b (SEC16 homolog B, endoplasmic reticulum export factor)",1.02,enough cells in well
"Tnfsf12 (tumor necrosis factor (ligand) superfamily, member 12)",-0.3,enough cells in well
Dag1 (dystroglycan 1),0.93,enough cells in well
Nup50 (nucleoporin 50),-0.99,enough cells in well
Lcn6 (lipocalin 6),-0.74,enough cells in well
Npr2 (natriuretic peptide receptor 2),0.55,enough cells in well
Npr2 (natriuretic peptide receptor 2),1.43,enough cells in well
Erh (ERH mRNA splicing and mitosis factor),0.86,enough cells in well
Krtap4-7 (keratin associated protein 4-7),2.85,enough cells in well
"Atp6v1f (ATPase, H+ transporting, lysosomal V1 subunit F)",1.32,enough cells in well
Srpx (sushi-repeat-containing protein),-0.36,enough cells in well
Ecd (ecdysoneless cell cycle regulator),0.26,enough cells in well
Tex10 (testis expressed gene 10),0.37,enough cells in well
Or52h2 (olfactory receptor family 52 subfamily H member 2),1.87,enough cells in well
Npm2 (nucleophosmin/nucleoplasmin 2),,fewer than 50 cells per well; well left out of calls
Tmed5 (transmembrane p24 trafficking protein 5),,fewer than 50 cells per well; well left out of calls
Ttc14 (tetratricopeptide repeat domain 14),-1.14,enough cells in well
Gpr6 (G protein-coupled receptor 6),-0.09,enough cells in well
B3galt1,1.13,enough cells in well

A stretch from the list above:
gene,Tnf reporter robust z-score,fewer than 50 cells in well
Mapk11 (mitogen-activated protein kinase 11),-0.21,enough cells in well
Vps72 (vacuolar protein sorting 72),0.22,enough cells in well
"Pym1 (PYM homolog 1, exon junction complex associated factor)",1,enough cells in well
"Itih1 (inter-alpha trypsin inhibitor, heavy chain 1)",0.2,enough cells in well
"Cacna1d (calcium channel, voltage-dependent, L type, alpha 1D subunit)",-1.43 (active),enough cells in well
Fgf15 (fibroblast growth factor 15),0.48,enough cells in well
Cfap74 (cilia and flagella associated protein 74),,fewer than 50 cells per well; well left out of calls
Efna1 (ephrin A1),0.18,enough cells in well
Eif4e (eukaryotic translation initiation factor 4E),-0.77,enough cells in well
Pcyox1 (prenylcysteine oxidase 1),2.24,enough cells in well
"Myh11 (myosin, heavy polypeptide 11, smooth muscle)",-0.56,enough cells in well
